Results deposited as PubChem BioAssay AID1259308 (NCATS, 2017)
Purpose: 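Genes whose loss raises luciferase production in HEK293 cells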 (primary screen). Cells: human HEK293 embryonic kidney cells stably expressing firefly luciferase (HEK-CMV-Luc2-Hygro). Reagent: single siRNA against human genes, 0.8 pmol siRNA per well. Timing: 72 h. Measured: 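Reporter luminescence and viable-cell signal on separate replicate plates, given as percent of non-targeting control and median/MAD z-scores, plus per-cell luciferase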. Scale: total luciferase, z-score and total luciferase, % of control: higher = more reporter protein produced; luciferase per cell, z-score: higher = more reporter output per viable cell; viable cells, % of control: higher = more viable cells. Hit rule: 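An siRNA counts as active if its total luciferase robust z-score exceeds 3; genes with two or more such siRNAs out of three were retested with fresh siRNAs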. Meaning of the calls: active = raised luciferase; inactive = no rise.
Shown is an unselected part of about 59,000 reagents tested. About 1,510 of all reagents (2.6%) count as active. 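Calls use total luciferase alone and ignore viability, so some active siRNAs may act by altering cell number.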 Entries without a mark were called inactive. Reagents against one gene are numbered here. No sequences are given here.

| Target gene | reagent no. | total luciferase, z-score | total luciferase, % of control | luciferase per cell, z-score | viable cells, % of control |
| --- | --- | --- | --- | --- | --- |
| XPO7 | 1 | 0.00887 | 82.1 | -0.964 | 118 |
| XPO7 | 2 | -0.269 | 76.5 | 0.308 | 78.8 |
| XPO7 | 3 | 0.136 | 84.6 | 0.399 | 85.1 |
| ZNF962P | 1 | -0.141 | 79.1 | -0.0971 | 90.7 |
| ZNF962P | 2 | 0.204 | 85.9 | -0.428 | 108 |
| ZNF962P | 3 | -0.604 | 69.9 | -0.0533 | 79.2 |
| ROBO2 | 1 | 0.607 | 94 | 0.112 | 102 |
| ROBO2 | 2 | 0.913 | 100 | 1.38 | 77.8 |
| ROBO2 | 3 | -2.13 | 39.5 | -2.88 | 94.1 |
| QRFPR | 1 | 2.83 | 138 | 1.2 | 113 |
| QRFPR | 2 | -1.03 | 61.4 | -1.03 | 90 |
| QRFPR | 3 | -0.132 | 79.3 | -0.423 | 99 |
| FXYD2 | 1 | 0.943 | 101 | 0.377 | 102 |
| FXYD2 | 2 | 0.237 | 86.6 | -0.377 | 107 |
| FXYD2 | 3 | 2.13 | 124 | 1.33 | 97.7 |
| MSL1 | 1 | -0.118 | 79.5 | 0.913 | 69.9 |
| MSL1 | 2 | -0.884 | 64.3 | -0.663 | 85.6 |
| MSL1 | 3 | -0.998 | 62 | 0.125 | 67.1 |

Entries above whose target name begins with M or m:
| Target gene | reagent no. | total luciferase, z-score | total luciferase, % of control | luciferase per cell, z-score | viable cells, % of control |
| --- | --- | --- | --- | --- | --- |
| MSL1 | 1 | -0.118 | 79.5 | 0.913 | 69.9 |
| MSL1 | 2 | -0.884 | 64.3 | -0.663 | 85.6 |
| MSL1 | 3 | -0.998 | 62 | 0.125 | 67.1 |

The results go on:
| Target gene | reagent no. | total luciferase, z-score | total luciferase, % of control | luciferase per cell, z-score | viable cells, % of control |
| --- | --- | --- | --- | --- | --- |
| ANO4 | 1 | -0.0688 | 80.5 | -0.594 | 105 |
| ANO4 | 2 | 1.99 | 121 | 1.75 | 85.6 |
| ANO4 | 3 | -0.509 | 71.8 | 0.315 | 73.8 |
| HPDL | 1 | -1.03 | 61.5 | -1.26 | 95.7 |
| HPDL | 2 | 3.1 (active) | 144 | 2.29 | 87.7 |
| HPDL | 3 | 0.631 | 94.4 | 1.05 | 80 |
| JUN | 1 | -0.0646 | 80.6 | 0.54 | 78.1 |
| JUN | 2 | 0.598 | 93.8 | 1.12 | 78 |
| JUN | 3 | -0.516 | 71.6 | -0.944 | 103 |
| WHRN | 1 | -0.42 | 73.5 | 0.689 | 68.5 |
| WHRN | 2 | 0.786 | 97.5 | 3.64 | 41.8 |
| WHRN | 3 | 0.435 | 90.5 | 0.169 | 96.8 |
| FOXL2NB | 1 | -0.0223 | 81.4 | -0.246 | 97.1 |
| FOXL2NB | 2 | 0.57 | 93.2 | 0.518 | 90.9 |
| FOXL2NB | 3 | 0.0838 | 83.6 | -0.684 | 112 |
| LINC00639 | 1 | -0.594 | 70.1 | 0.182 | 74.6 |
| LINC00639 | 2 | -1.95 | 43 | -1.59 | 73.2 |
| LINC00639 | 3 | 0.281 | 87.5 | 0.125 | 94.6 |
| GRIA3 | 1 | -0.553 | 70.9 | -0.497 | 90.3 |
| GRIA3 | 2 | -2.79 | 26.4 | -3.49 | 74.1 |
| GRIA3 | 3 | -0.764 | 66.7 | -1.08 | 99 |
